Laboratory results: PMC4267639, “The Mtr4 ratchet helix and arch domain both function to promote RNA unwinding”
The exact form of at least one protein or probe is not confirmed. For some assays here: Negatives hold for the conditions tested.

Tests used:
[1] = biological target: Mtr4 R1030A-archless (Saccharomyces cerevisiae) (UniProt P47047); assay: EMSA; details: no appreciable binding up to 20 uM protein; recombinant protein
[2] = biological target: T1, Mtr4 archless (Saccharomyces cerevisiae) (UniProt P47047); assay: EMSA; details: almost complete binding at 5 uM protein; recombinant protein
T1 sequence: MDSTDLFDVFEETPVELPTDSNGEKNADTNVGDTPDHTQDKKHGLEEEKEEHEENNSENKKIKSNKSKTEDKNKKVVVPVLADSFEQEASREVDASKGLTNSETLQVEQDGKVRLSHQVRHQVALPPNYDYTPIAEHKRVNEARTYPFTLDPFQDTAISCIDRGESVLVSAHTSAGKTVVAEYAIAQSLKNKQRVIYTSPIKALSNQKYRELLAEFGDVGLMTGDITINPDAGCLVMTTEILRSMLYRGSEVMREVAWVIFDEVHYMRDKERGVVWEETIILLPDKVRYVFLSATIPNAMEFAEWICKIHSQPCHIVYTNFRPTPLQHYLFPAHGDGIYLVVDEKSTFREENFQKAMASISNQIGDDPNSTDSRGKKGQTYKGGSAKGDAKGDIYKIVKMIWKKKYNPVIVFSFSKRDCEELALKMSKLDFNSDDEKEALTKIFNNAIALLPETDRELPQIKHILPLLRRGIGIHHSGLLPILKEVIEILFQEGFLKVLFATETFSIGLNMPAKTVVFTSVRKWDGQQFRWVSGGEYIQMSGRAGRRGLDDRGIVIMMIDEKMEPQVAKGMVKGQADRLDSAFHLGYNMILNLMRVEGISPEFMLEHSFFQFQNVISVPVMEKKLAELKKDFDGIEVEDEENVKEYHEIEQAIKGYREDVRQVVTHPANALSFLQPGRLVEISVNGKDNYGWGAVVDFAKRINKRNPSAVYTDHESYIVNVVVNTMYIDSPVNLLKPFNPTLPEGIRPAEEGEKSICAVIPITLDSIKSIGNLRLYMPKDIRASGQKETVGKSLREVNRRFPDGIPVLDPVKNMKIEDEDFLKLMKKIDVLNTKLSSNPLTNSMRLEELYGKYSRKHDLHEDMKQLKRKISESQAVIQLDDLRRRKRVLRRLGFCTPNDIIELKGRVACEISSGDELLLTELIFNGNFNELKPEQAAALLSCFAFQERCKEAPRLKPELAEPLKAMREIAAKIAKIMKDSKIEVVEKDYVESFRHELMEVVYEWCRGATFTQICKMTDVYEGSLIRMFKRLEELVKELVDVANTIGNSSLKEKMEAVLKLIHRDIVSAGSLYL

## GCGUCUUUACGGUGCUUAAAAA / AGCACCGUAAAGACGC [poly(A) substrate R22A/R16 (EMSA)]
[1]
  binding result: no binding
[2]
  binding result: binds
